The list is a part of this screen's results and no random one: it is rich in T/C values a quarter to a half above the control, in often repeated tests (any T/C) and in doses without a T/C. Further doses and runs are listed elsewhere. T/C: endpoint of the treated group in % of that of the vehicle group. Some entries give survivors of the animals treated and no T/C: the source files T/C as zero there, which appears to mark a toxic dose or a test without result, not a measured value. Some doses without a T/C left all or most animals alive at the check, yet need not have been tolerated: survival well below the control is almost never listed, so the zero probably covers shortened survival too. Survivors were counted at the toxicity check, usually on the fifth day, unless a day is given; later deaths do not show. Schedule codes are those of the source, taken here to give the interval after Q, in days (D) or hours (H), and the number of doses after X. For survival time, this PubChem deposit counts one and a half times the control or more as active, and values a quarter to a half above the control carry no call in these data; other NCI protocols may use other cut-offs. Some entries hold several experiments; their values stand side by side, smallest first.
Test system: BDF1 mice, P388/VCR leukemia ip, median survival T/C
Experiment: NCI In Vivo Anticancer Drug Screen. Data for tumor model P388 Leukemia resistant to Vincristine; NSC 67574 (intraperitoneal) in B6D2F1 (BDF1) mice
Details: T/C endpoint: median survival time, higher T/C = longer survival
Protocol: The antitumor activity of compounds was measured in mice bearing transplantable tumors. Survival or tumor size were measured and the results are expressed as the measurement made in the treated group (T) divided by the measurement made in the vehicle treated control group (C). The tumor model used in this assay is P388 Leukemia resistant to Vincristine; NSC 67574 (intraperitoneal) in B6D2F1 (BDF1) mice

[1] = dose: 1.0 mg/kg/injection, schedule: Q01DX010 (ip), vehicle: saline
[2] = dose: 2.0 mg/kg/injection, schedule: Q01DX010 (ip), vehicle: saline
[3] = dose: 4.0 mg/kg/injection, schedule: Q01DX010 (ip), vehicle: saline

In the case of CCC1(O)CC2CN(CCc3c([nH]c4ccccc34)C(C(=O)OC)(c3cc4c(cc3OC)N(C)C3C(O)(C(N)=O)C(O)C5(CC)C=CCN6CCC43C65)C2)C1 (stereo unspecified) (tested in a mixture with another compound), the T/C (dose: 2000.0 micrograms/kg/injection, schedule: Q04DX003 (ip), vehicle: saline) is reported as 129 % of control and the survivor count (dose: 3000.0 micrograms/kg/injection, schedule: Q04DX003 (ip), vehicle: saline) is reported as 8 of 8.

With O=C(Nc1cccc(C(=O)Nc2ccc(C3=NCCN3)cc2)c1)c1ccc(C2=NCCN2)cc1 the survivor count (dose: 80.0 mg/kg/injection, schedule: Q01DX010 (ip), vehicle: saline) was 3 of 6, the survivor count (dose: 120.0 mg/kg/injection, schedule: Q01DX010 (ip), vehicle: saline) was 0 of 6 and the survivor count (dose: 180.0 mg/kg/injection, schedule: Q01DX010 (ip), vehicle: saline) was 0 of 6.

With CN(Cc1cnc2nc(N)nc(N)c2n1)c1ccc(C(=O)N[C@@H](CCC(=O)O)C(=O)O)cc1 the T/C (dose: 40.0 mg/kg/injection, schedule: Q04DX003 (ip), vehicle: sodium bicarbonate) was 136 % of control.

C1CN1c1nc(N2CC2)nc(N2CC2)n1 was tested, and the survivor count [1] was 6 of 6.

In the case of CCCSc1ncnc2nc[nH]c12, the survivor count (dose: 31.3 mg/kg/injection, schedule: Q01DX010 (ip), vehicle: saline) is reported as 6 of 6, the survivor count (dose: 62.5 mg/kg/injection, schedule: Q01DX010 (ip), vehicle: saline) is reported as 6 of 6 and the survivor count (dose: 250.0 mg/kg/injection, schedule: Q01DX010 (ip), vehicle: saline) is reported as 6 of 6.

In the case of Cc1c2ccncc2c(C)c2c1[nH]c1ccccc12, the T/C (dose: 14.4 mg/kg/injection, schedule: Q04DX003 (ip), vehicle: clinical formulation) is reported as 145 % of control.

In the case of O=C(Nc1ccc(C2=NCCN2)cc1)Nc1cccc(NC(=O)Nc2ccc(C3=NCCN3)cc2)c1, the T/C (dose: 240.0 mg/kg/injection, schedule: Q01DX010 (ip), vehicle: saline) is reported as 137 and 145 % of control.

With O=C(Nc1ccc(NC2=NCCN2)cc1)c1ccc(C(=O)Nc2ccc(NC3=NCCN3)cc2)cc1 the T/C [2] was 146 % of control and the T/C [3] was 142 % of control.

With S=P(N1CC1)(N1CC1)N1CC1 the T/C (dose: 3.0 mg/kg/injection, schedule: Q01DX010 (ip), vehicle: saline) was 145 % of control.

NC(Cc1ccc(N(CCCl)CCCl)cc1)C(=O)O (stereo unspecified) was tested, and the T/C (dose: 1.25 mg/kg/injection, schedule: Q01DX010 (ip), vehicle: saline) was 140 % of control and the T/C (dose: 5.0 mg/kg/injection, schedule: Q01DX010 (ip), vehicle: saline) was 143 % of control.

CCC1(O)CC2CN(CCc3c([nH]c4ccccc34)C(C(=O)OC)(c3cc4c(cc3OC)N(C)C3C(O)(C(=O)NCCSSCCNC(=O)C5(O)C(O)C6(CC)C=CCN7CCC8(c9cc(C%10(C(=O)OC)CC%11CN(CCc%12c%10[nH]c%10ccccc%12%10)CC(O)(CC)C%11)c(OC)cc9N(C)C58)C76)C(O)C5(CC)C=CCN6CCC43C65)C2)C1 (stereo unspecified) was tested, and the T/C (dose: 500.0 micrograms/kg/injection, schedule: Q04DX003 (ip), vehicle: saline) was 125 % of control, the T/C (dose: 1080.0 micrograms/kg/injection, schedule: Q04DX003 (ip), vehicle: saline) was 137 % of control and the T/C (dose: 1800.0 micrograms/kg/injection, schedule: Q04DX003 (ip), vehicle: saline) was 137 % of control.

For O=C[C@@H](CO)O[C@H](C=O)n1cnc2c(=O)[nH]cnc21, the T/C (dose: 108.0 mg/kg/injection, schedule: Q04DX003 (ip), vehicle: water) was 131 % of control and the survivor count (dose: 500.0 mg/kg/injection, schedule: Q04DX003 (ip), vehicle: water) was 1 of 8.

With O=C(Nc1ccc(C2=NCCN2)cc1)c1cccc(C(=O)Nc2ccc(C3=NCCN3)cc2)c1 the T/C (dose: 8.0 mg/kg/injection, schedule: Q01DX010 (ip), vehicle: saline) was 125 % of control, the T/C (dose: 16.0 mg/kg/injection, schedule: Q01DX010 (ip), vehicle: saline) was 129 % of control and the T/C (dose: 32.0 mg/kg/injection, schedule: Q01DX010 (ip), vehicle: saline) was 129 and 145 % of control. The T/C (dose: 64.0 mg/kg/injection, schedule: Q01DX010 (ip), vehicle: saline) was 140 % of control.

In the case of O=c1cnn(C2OC(CO)C(O)C2O)c(=O)[nH]1 (stereo unspecified), the T/C (dose: 200.0 mg/kg/injection, schedule: Q01DX010 (ip), vehicle: saline) is reported as 130 % of control and the survivor count (dose: 800.0 mg/kg/injection, schedule: Q01DX010 (ip), vehicle: saline) is reported as 6 of 6.

With Nc1nc(=S)c2ncn(C3OC(CO)C(O)C3O)c2[nH]1 (stereo unspecified) the survivor count [1] was 6 of 6, the survivor count [2] was 6 of 6 and the survivor count [3] was 6 of 6.
